Screening data, single-dose tests

The chains behind the UniProt entries cited, without tags or fusion partners. Residues count along the entry.
UniProt P9WFT3, whole entry: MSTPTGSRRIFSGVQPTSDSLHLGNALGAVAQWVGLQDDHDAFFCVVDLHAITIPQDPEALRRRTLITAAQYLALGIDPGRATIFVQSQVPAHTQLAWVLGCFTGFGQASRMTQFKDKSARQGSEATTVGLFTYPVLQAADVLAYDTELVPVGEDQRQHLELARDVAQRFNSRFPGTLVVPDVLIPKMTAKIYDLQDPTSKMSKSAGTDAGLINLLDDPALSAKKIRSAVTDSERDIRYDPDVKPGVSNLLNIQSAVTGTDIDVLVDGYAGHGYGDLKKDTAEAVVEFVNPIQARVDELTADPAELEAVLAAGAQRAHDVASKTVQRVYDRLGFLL
UniProt Q4DA54, 1-478: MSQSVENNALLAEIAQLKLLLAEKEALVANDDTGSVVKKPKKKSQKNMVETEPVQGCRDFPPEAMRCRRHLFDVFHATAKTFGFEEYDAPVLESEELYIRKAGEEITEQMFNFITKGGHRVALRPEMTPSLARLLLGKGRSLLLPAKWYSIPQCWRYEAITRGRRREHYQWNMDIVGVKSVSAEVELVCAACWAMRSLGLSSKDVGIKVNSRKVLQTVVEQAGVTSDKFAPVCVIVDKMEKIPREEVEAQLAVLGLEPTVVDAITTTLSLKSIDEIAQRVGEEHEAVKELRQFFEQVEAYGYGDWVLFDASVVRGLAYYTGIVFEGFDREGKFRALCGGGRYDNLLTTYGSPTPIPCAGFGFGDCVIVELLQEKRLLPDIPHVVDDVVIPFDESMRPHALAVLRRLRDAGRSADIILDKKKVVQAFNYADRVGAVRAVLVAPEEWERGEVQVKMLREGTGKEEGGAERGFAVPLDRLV

A: 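Tryptophan-tRNA ligase, Mycobacterium tuberculosis (UniProt P9WFT3). Enzyme assay of tryptophanyl-tRNA synthetase; the read-out is not stated. Concentration: 10 µM. Higher most likely means stronger inhibition; the record gives no direction and few retests gave an IC50. Of about 65,000 compounds tested this way, about 64 (0.098%) reached 50% or more in at least one test.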
B: 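Cell assay of Leishmania donovani living inside macrophages; the read-out is not stated. Tested at 30 µM. Higher reads as stronger inhibition (inferred: compounds with an IC50 in retests scored well above the rest). Size under these conditions: about 69,000 compounds, about 1,000 of them at 50% or above in at least one test.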
C: 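Enzyme assay of histidyl-tRNA synthetase; the read-out is not stated. Target: Histidine-tRNA ligase, Trypanosoma cruzi CL Brener (UniProt Q4DA54). Tested at 30 µM. The record gives no direction; compounds that gave an IC50 in retests scored well above the rest, so higher reads as stronger inhibition. About 69,000 compounds were tested under these conditions; 0.045% (about 31) showed 50% or more at least once.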

Each number is a percent effect as filed. How 0% and 100% were set is not recorded. Most values in the screen are low, and negative values occur. This is an unselected part of the compounds tested. Two or more numbers in one place are separate tests of the same structure; such repeats can differ widely. A dash means the value is not listed here; it may have been measured.

structure | A | B | C
CN(Cc1ccc(OC(F)F)cc1)C(=O)CS(=O)(=O)c1ccc(Cl)cc1 | 5.031 | 29.27 | 0
Cc1nn(C)c(N2CCOCC2)c1CNC1CCS(=O)(=O)C1 (centres undefined) | 0.8489 | 15.34 | 3.896
CCn1cc(CN(C)c2nc(C)c3ccc(S(C)(=O)=O)cc3n2)cn1 | -0.8256 | 14.19 | 7.895
O=C(c1ccon1)N1CCN(c2ccncc2Cl)CC1 | -0.7597 | 12.49 | 6.667
O=C(NCCc1cc(F)ccc1F)NC(CO)c1ccccc1 (centres undefined) | 8.327 | -1.005 | 3.333
Cc1nc(N2C[C@@H](CN3CCCN(C)CC3)[C@@H](CO)C2)c2ccsc2n1 | 1.451 | -13.66 | 2.717
Cc1ccc(CN(CCCn2ccnc2)Cc2c[nH]cn2)s1.O=C(O)CC(O)(CC(=O)O)C(=O)O | - | 29.23 | -
COc1cc(I)c(Cl)cc1C(=O)N(C)CC(=O)NC(C)(C)C | 2.522 | 3.789 & 21.95 | 4.878
Cc1nc(NCC2CC2)nc2c1COCC21CCN(C(=O)C(C)(C)C)C1 (centres undefined) | 2.346 | -5.86 | 0
CC(C)[C@@H]1CN(Cc2ccsc2)C[C@H]1NS(=O)(=O)N(C)C | -2.034 | 14.52 | -1.734
Cc1cc(C(=O)NCC(F)(F)F)c2c(C3CCNCC3)noc2n1 | 3.544 | 13.35 | 1.775
CN(Cc1ccco1)C[C@H]1OC[C@@H]2CCN(Cc3ccsc3)C[C@@H]21 | 3.614 | - | 5.941
CCS(=O)(=O)N1CCC2(CC1)COC(COc1cccnc1)C2 (centres undefined) | 4.869 | - | 4.598
O=S1(=O)CCC(N2CCN(c3cc(C(F)(F)F)ccn3)CC2)C1 (centres undefined) | 1.638 | 19.32 | 10.5
COc1nccc(N2CC[C@@H](N3CCCCCC3)[C@H](O)C2)c1C#N | -2.592 | 7.209 | 28.04
O=C1COc2ccc(Br)cc2CN1CC1CC1 | 1.36 | -66.02 | 2.424
Cc1ccc(C(=O)N2CCC3(CC2)CCN(CCN(C)C)C3=O)cn1.O=C(O)C(F)(F)F.O=C(O)C(F)(F)F | - | 22.48 | -
Cc1cc(C)c(Cn2cncn2)cc1CN1CC[C@H](CO)[C@@H](O)C1 | 9.185 | 2.088 | 2.128
CC(NC(=O)OC(C)(C)C)c1nnc(S(=O)(=O)Cc2ccccc2Cl)o1 (centres undefined) | -0.6958 | -7.012 | 7
[H][C@]12CC[C@]([H])(CN(Cc3ccccc3)C1)N(C(=O)c1ccc(SC)cc1)C2 | - | -6.077 | -
COc1ccc(C2CCCN2S(=O)(=O)c2cc(F)ccc2F)cc1 (centres undefined) | 7.484 | -1.86 | -9.091
Cc1nc2ccccc2nc1CN1CCCC1Cn1cccn1 (centres undefined) | -6.265 | 9.419 | 15.97
CCn1cc(NC(=O)NCC(O)COc2ccccc2)cn1 (centres undefined) | -0.6877 | 4.022 | 6.857
[H][C@@]12CCN(C(=O)c3ccc[nH]3)[C@@]1([H])CC(=O)N2CCOC | - | 5.203 | -
CN1CCC(Cc2noc(-c3cn(Cc4ccc(F)cc4)nn3)n2)CC1 | 1.613 | -12.32 | 3.409
CC1N(CC2CC2)C(=O)COC12CCN(C(=O)c1cnccn1)CC2 (centres undefined) | -3.004 | 12.43 | 6.135
COc1ccc(F)c(CN2CCCC(O)(CNCC(C)(C)C)C2=O)c1 (centres undefined) | -2.183 | 10.43 | 3.061
Cc1ccsc1CN(CCN(C)C)C(=O)c1ccc(C#N)nc1 | -1.274 | 13.58 | -1.087
CCCn1cnnc1CN(C)C(=O)C1CCC(=O)N(C2CCCC2)C1 (centres undefined) | 5.578 | 23.87 | 2.235
O=C1CCCN1Cc1nnc(SCc2ccc3c(c2)CCC3)o1 | 3.259 | 6.062 | 10
CCc1[nH]c2c(CNC(=O)C3CCS(=O)(=O)CC3)cc(C)cc2c1C | -3.184 | -7.846 | -5.797
C1CCC(NCC2(N3CCOCC3)CCSC2)C1 (centres undefined) | 1.204 | 11.81 | -0.9804
CC1CN(CC(=O)N2CCCC2)CCN1c1ccc2nncn2n1 (centres undefined) | 1.649 | -2.562 | -4.167
O=C(O)C(F)(F)F.O=C1COC2(CCN(Cc3ccco3)CC2)CN1 | - | 16.23 | -
O=C1Nc2ccccc2NC12CCN(c1cccc(C(F)(F)F)n1)CC2 | 1.027 | -20.09 | 0
Cc1nccc([C@@H]2C[C@@H]3CCN(Cc4ccco4)C[C@H]3O2)n1 | 0 | - | 10.74
CC(C)c1nc(CN2CCCC(O)C2)cs1 (centres undefined) | 0.4068 | 15.82 | 0
Cc1cc(C)n(-c2cccc(NC(=O)N3CCC[C@@H]3CO)c2)n1 | -1.888 | 1.516 | -2.381
CC(C)N1CCOCC2(CN(Cc3ccccn3)CCO2)C1.O=C(O)C(F)(F)F.O=C(O)C(F)(F)F.O=C(O)C(F)(F)F (centres undefined) | - | 25.83 | -
Cc1ccoc1C(=O)N1CC[C@@H]2CN(C3CCOCC3)CCO[C@@H]2C1 | - | - | -10.55
O=C(NCc1cccnc1-n1cncn1)c1ccc2c(c1)CCO2 | -5.085 | 22.57 | 4.942
CC(C)C(=O)NC1CC2(CCN(CC(=O)N(C)C)CC2)c2ccccc21 (centres undefined) | - | - | 11.64
Cc1ccsc1CN(Cc1ncccc1C(=O)O)C1CC1 | 2.328 | 19.26 | 7.303
CNC(=O)CN1CC[C@H]2CN(C(=O)c3ccoc3)C[C@H]2C1 | -3.358 | - | 1.869
C[S+]([O-])c1ccc(NC(=O)Cc2cccnc2)cc1F (centres undefined) | 2.096 | -12.41 | 1.031
O=C1CC2(CCCCN2CC2CC2)CN1c1ccccc1 (centres undefined) | 2.468 | - | 8.021
CCCN1CCN(S(=O)(=O)c2ncn(C)c2Cl)CC1 | -1.323 | 24.71 | 1.97
Cc1noc(C)c1CN(Cc1cccs1)C1CCS(=O)(=O)C1 (centres undefined) | 59.35 | -10.31 | 1.156
CC(C)n1c(C2CCCN(CC(=O)NC3CC3)C2)nc2ccccc21 (centres undefined) | -4.44 | 6.459 | 2.174
CCCC(=O)N(CCCN1CCOCC1)c1nc2c(C)ccc(Cl)c2s1.Cl | - | 61.37 & 45.74 | -
CCn1nccc1S(=O)(=O)N1CCC2(CCCN(C(C)C)C2=O)C1 (centres undefined) | -0.4968 | 5.849 | 3.448
CC(C)Nc1cccc(CC2CCN(S(C)(=O)=O)CC2)n1 | 10.67 | -4.198 | 0.7605
Cc1nc(C2CCCN(C(=O)Cn3ccccc3=O)C2)no1 (centres undefined) | -5.66 | -20.73 | 1.141
CCCn1nnnc1CSc1nccn1CC | -0.000005 | 5.038 | 2.532
Cc1cnc(NCCc2c[nH]cn2)nc1-c1ccnn1C | -1.867 | 27.38 | 0
NC(=O)C1CCCN1C1CCN(C(=O)c2cccc3c2OCO3)CC1 (centres undefined) | -2.037 | 13.8 | 3.982
Cc1ccc(C(C)NC(=O)N2CCNC(=O)CC2)cc1F (centres undefined) | 2.576 | -14.72 | 9.938
c1cnnc(-c2noc(COCC3CCCO3)n2)c1 (centres undefined) | -0.6552 | 3.93 | -2.762
COCc1ncc(CN2CCC3(CCNC(=O)CC3)CC2)cn1 | 0.2681 | -8.664 | 4.762
Cc1ccc([C@@H]2CN(S(=O)(=O)c3cccs3)C[C@H]2N(C)C)cc1 | 1.174 | 24.71 | 4.237

6 of the entries, repeated:

CCCN1CCN(S(=O)(=O)c2ncn(C)c2Cl)CC1 gave A: -1.323%; B: 24.71%; C: 1.97%.
Cc1nccc([C@@H]2C[C@@H]3CCN(Cc4ccco4)C[C@H]3O2)n1 gave A: 0%; C: 10.74%.
COc1cc(I)c(Cl)cc1C(=O)N(C)CC(=O)NC(C)(C)C gave A: 2.522%; B: 3.789% & 21.95%; C: 4.878%.
CCc1[nH]c2c(CNC(=O)C3CCS(=O)(=O)CC3)cc(C)cc2c1C gave A: -3.184%; B: -7.846%; C: -5.797%.
CC(C)Nc1cccc(CC2CCN(S(C)(=O)=O)CC2)n1 gave A: 10.67%; B: -4.198%; C: 0.7605%.
O=C(c1ccon1)N1CCN(c2ccncc2Cl)CC1 gave A: -0.7597%; B: 12.49%; C: 6.667%.

Measurements from “University of Dundee, Small-Polar-MMV Screening Library” (2021), ChEMBL document CHEMBL3988442.